Results are given in words; binding and its absence hold for the method and conditions named. In cells and extracts the contact can be indirect. Binding calls can cover weak binding; strength is not graded here. For some of these results: Tags and fused reporters may be left off the sequences shown.

Binding data for 4 molecules are collected here from PMC7026653.

Assay [1] addresses T1, GFP tagged Srp (Drosophila) (UniProt P52172).
T1 sequence: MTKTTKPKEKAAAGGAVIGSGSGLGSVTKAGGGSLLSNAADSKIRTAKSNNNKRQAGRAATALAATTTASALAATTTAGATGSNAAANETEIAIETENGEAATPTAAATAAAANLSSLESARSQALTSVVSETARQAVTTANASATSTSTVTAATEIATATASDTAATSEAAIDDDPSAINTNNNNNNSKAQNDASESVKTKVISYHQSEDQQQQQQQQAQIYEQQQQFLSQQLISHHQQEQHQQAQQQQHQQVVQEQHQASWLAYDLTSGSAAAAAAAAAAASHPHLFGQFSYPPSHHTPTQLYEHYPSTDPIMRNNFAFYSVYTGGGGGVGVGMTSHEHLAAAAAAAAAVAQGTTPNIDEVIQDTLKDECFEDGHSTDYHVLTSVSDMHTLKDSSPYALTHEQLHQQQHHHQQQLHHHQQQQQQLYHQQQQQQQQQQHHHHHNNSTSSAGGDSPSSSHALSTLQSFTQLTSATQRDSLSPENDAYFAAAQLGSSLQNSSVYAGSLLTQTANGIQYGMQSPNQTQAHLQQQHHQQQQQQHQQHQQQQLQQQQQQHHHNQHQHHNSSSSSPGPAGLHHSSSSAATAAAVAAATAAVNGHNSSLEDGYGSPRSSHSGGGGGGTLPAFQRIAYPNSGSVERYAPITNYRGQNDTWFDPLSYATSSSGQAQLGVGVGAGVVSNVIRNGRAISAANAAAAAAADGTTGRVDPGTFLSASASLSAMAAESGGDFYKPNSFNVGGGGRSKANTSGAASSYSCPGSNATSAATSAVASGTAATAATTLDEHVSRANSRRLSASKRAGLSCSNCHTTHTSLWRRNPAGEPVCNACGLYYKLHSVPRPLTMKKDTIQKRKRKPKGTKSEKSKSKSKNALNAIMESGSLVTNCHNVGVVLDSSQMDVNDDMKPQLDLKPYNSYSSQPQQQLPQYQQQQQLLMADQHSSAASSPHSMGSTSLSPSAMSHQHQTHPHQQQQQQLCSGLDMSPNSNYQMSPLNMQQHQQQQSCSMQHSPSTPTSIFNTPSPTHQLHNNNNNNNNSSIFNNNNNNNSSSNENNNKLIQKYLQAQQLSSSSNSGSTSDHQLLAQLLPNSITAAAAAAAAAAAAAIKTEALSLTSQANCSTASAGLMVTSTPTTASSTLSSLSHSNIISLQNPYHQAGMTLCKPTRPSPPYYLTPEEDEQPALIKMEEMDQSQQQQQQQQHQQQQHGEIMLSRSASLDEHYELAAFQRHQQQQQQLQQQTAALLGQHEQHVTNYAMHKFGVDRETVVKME
Description: co-IP; S2 cell extracts in E1A buffer (50 mM HEPES, 250 mM NaCl, 0.1% NP40), sonicated; IP with anti-GFP (Chromotek) of the GFP-tagged protein, western blot of the endogenous partner; with or without Benzonase (1000 units, overnight). A general note: A western blot detects proteins with antibodies after separation by electrophoresis.

The target in assay [2] is T2, endogenous Piwi (P-element induced wimpy testis) (Drosophila (endogenous in ovaries of w1118 flies)) (UniProt Q9VKM1).
T2 sequence: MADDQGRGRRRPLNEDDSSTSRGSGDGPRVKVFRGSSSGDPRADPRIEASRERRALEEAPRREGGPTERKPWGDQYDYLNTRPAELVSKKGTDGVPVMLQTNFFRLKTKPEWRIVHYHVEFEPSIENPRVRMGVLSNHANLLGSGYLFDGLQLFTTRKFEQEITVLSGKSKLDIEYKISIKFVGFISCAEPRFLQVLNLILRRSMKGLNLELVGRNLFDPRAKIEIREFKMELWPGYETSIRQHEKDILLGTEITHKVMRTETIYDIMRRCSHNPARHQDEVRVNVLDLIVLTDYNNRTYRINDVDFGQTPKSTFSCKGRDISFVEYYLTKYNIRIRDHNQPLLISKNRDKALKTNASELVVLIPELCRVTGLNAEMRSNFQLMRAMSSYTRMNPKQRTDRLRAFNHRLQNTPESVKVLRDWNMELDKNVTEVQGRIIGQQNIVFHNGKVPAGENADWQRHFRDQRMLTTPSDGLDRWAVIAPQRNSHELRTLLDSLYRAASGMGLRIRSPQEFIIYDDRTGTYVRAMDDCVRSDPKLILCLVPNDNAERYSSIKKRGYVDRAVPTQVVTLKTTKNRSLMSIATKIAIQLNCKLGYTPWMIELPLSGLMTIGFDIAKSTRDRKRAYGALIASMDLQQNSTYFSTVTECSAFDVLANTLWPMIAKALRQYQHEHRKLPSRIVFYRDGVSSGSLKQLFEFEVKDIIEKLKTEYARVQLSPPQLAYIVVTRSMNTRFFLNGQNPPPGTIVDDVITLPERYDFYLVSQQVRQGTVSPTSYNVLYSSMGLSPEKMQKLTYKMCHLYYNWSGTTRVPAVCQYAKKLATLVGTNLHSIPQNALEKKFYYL
Description: co-IP; extracts of ovaries from w1118 flies in E1A buffer (50 mM HEPES, 250 mM NaCl, 0.1% NP40), sonicated; reciprocal IP with anti-dLsd1 or anti-Piwi (Santa-Cruz), IgG as control, western blot; with or without Benzonase (1500 units, overnight).

For assay [3], the target named is GFP tagged dLsd1 (Drosophila). Description: co-IP; S2 cell extracts in E1A buffer (50 mM HEPES, 250 mM NaCl, 0.1% NP40), sonicated; IP with anti-GFP (Chromotek) of the GFP-tagged protein, western blot of the endogenous partner; with or without Benzonase (1000 units, overnight).
The target in assay [4] is endogenous dLsd1 (ovaries) (Drosophila (endogenous in ovaries of w1118 flies)). Description: co-IP; extracts of ovaries from w1118 flies in E1A buffer (50 mM HEPES, 250 mM NaCl, 0.1% NP40), sonicated; reciprocal IP with anti-dLsd1 or anti-Piwi (Santa-Cruz), IgG as control, western blot; with or without Benzonase (1500 units, overnight).

Regarding “endogenous dLsd1 (S2 cells) (Drosophila (endogenous in S2 cells))”, the binding result in assay [1] is given as “binds”.
On to endogenous dLsd1 (ovaries), for which the binding entry in assay [2] is “binds weakly”.

B1: endogenous Serpent (Srp) (protein, UniProt P52172 1-1264)
chain: MTKTTKPKEKAAAGGAVIGSGSGLGSVTKAGGGSLLSNAADSKIRTAKSNNNKRQAGRAATALAATTTASALAATTTAGATGSNAAANETEIAIETENGEAATPTAAATAAAANLSSLESARSQALTSVVSETARQAVTTANASATSTSTVTAATEIATATASDTAATSEAAIDDDPSAINTNNNNNNSKAQNDASESVKTKVISYHQSEDQQQQQQQQAQIYEQQQQFLSQQLISHHQQEQHQQAQQQQHQQVVQEQHQASWLAYDLTSGSAAAAAAAAAAASHPHLFGQFSYPPSHHTPTQLYEHYPSTDPIMRNNFAFYSVYTGGGGGVGVGMTSHEHLAAAAAAAAAVAQGTTPNIDEVIQDTLKDECFEDGHSTDYHVLTSVSDMHTLKDSSPYALTHEQLHQQQHHHQQQLHHHQQQQQQLYHQQQQQQQQQQHHHHHNNSTSSAGGDSPSSSHALSTLQSFTQLTSATQRDSLSPENDAYFAAAQLGSSLQNSSVYAGSLLTQTANGIQYGMQSPNQTQAHLQQQHHQQQQQQHQQHQQQQLQQQQQQHHHNQHQHHNSSSSSPGPAGLHHSSSSAATAAAVAAATAAVNGHNSSLEDGYGSPRSSHSGGGGGGTLPAFQRIAYPNSGSVERYAPITNYRGQNDTWFDPLSYATSSSGQAQLGVGVGAGVVSNVIRNGRAISAANAAAAAAADGTTGRVDPGTFLSASASLSAMAAESGGDFYKPNSFNVGGGGRSKANTSGAASSYSCPGSNATSAATSAVASGTAATAATTLDEHVSRANSRRLSASKRAGLSCSNCHTTHTSLWRRNPAGEPVCNACGLYYKLHSVPRPLTMKKDTIQKRKRKPKGTKSEKSKSKSKNALNAIMESGSLVTNCHNVGVVLDSSQMDVNDDMKPQLDLKPYNSYSSQPQQQLPQYQQQQQLLMADQHSSAASSPHSMGSTSLSPSAMSHQHQTHPHQQQQQQLCSGLDMSPNSNYQMSPLNMQQHQQQQSCSMQHSPSTPTSIFNTPSPTHQLHNNNNNNNNSSIFNNNNNNNSSSNENNNKLIQKYLQAQQLSSSSNSGSTSDHQLLAQLLPNSITAAAAAAAAAAAAAIKTEALSLTSQANCSTASAGLMVTSTPTTASSTLSSLSHSNIISLQNPYHQAGMTLCKPTRPSPPYYLTPEEDEQPALIKMEEMDQSQQQQQQQQHQQQQHGEIMLSRSASLDEHYELAAFQRHQQQQQQLQQQTAALLGQHEQHVTNYAMHKFGVDRETVVKME
On to B1, for which the binding result in assay [3] was “binds”.

B2: endogenous Piwi (P-element induced wimpy testis) (protein, UniProt Q9VKM1 1-843)
chain: MADDQGRGRRRPLNEDDSSTSRGSGDGPRVKVFRGSSSGDPRADPRIEASRERRALEEAPRREGGPTERKPWGDQYDYLNTRPAELVSKKGTDGVPVMLQTNFFRLKTKPEWRIVHYHVEFEPSIENPRVRMGVLSNHANLLGSGYLFDGLQLFTTRKFEQEITVLSGKSKLDIEYKISIKFVGFISCAEPRFLQVLNLILRRSMKGLNLELVGRNLFDPRAKIEIREFKMELWPGYETSIRQHEKDILLGTEITHKVMRTETIYDIMRRCSHNPARHQDEVRVNVLDLIVLTDYNNRTYRINDVDFGQTPKSTFSCKGRDISFVEYYLTKYNIRIRDHNQPLLISKNRDKALKTNASELVVLIPELCRVTGLNAEMRSNFQLMRAMSSYTRMNPKQRTDRLRAFNHRLQNTPESVKVLRDWNMELDKNVTEVQGRIIGQQNIVFHNGKVPAGENADWQRHFRDQRMLTTPSDGLDRWAVIAPQRNSHELRTLLDSLYRAASGMGLRIRSPQEFIIYDDRTGTYVRAMDDCVRSDPKLILCLVPNDNAERYSSIKKRGYVDRAVPTQVVTLKTTKNRSLMSIATKIAIQLNCKLGYTPWMIELPLSGLMTIGFDIAKSTRDRKRAYGALIASMDLQQNSTYFSTVTECSAFDVLANTLWPMIAKALRQYQHEHRKLPSRIVFYRDGVSSGSLKQLFEFEVKDIIEKLKTEYARVQLSPPQLAYIVVTRSMNTRFFLNGQNPPPGTIVDDVITLPERYDFYLVSQQVRQGTVSPTSYNVLYSSMGLSPEKMQKLTYKMCHLYYNWSGTTRVPAVCQYAKKLATLVGTNLHSIPQNALEKKFYYL
Consider B2, for which the binding entry in assay [4] was “binds weakly”.
